Experimental data: PMC6327479

Test system: T1, HicB RHH1 domain-6His (Sinorhizobium meliloti)
T1 sequence (looked up, limits assumed): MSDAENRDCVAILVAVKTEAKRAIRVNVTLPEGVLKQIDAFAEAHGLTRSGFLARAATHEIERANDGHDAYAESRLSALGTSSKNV
Assay: EMSA
Settings: 0-5 uM RHH, stated to bind as efficiently as HicB; EMSA: 10 mM Tris-HCl pH 7.5, 50 mM NaCl, 1 mM DTT, 300 ug/ml BSA, 20 ul, 30 min at 25 C; 5% native PAGE in TAE pH 7.5; recombinant protein; protein details: C-terminal 6His; label: [alpha-32P]dCTP, internal by PCR; probe letters rebuilt from the primers and the genome

“GATCCGACGGTTCGAGACCATCCGAGAAAGCCGCCTTAGATTGGCTTGACAAATTCATTGGACGAATACACATGCGTGTGTATTGTCGTATCAGATGAAGAGCGGCGACATTATTGCAGCATTGCAGAAGGACGGATGGTACGAGGTTGCGACCAAGGGCAGCCACGTTCAATTCAAACATCCGAAAAAGCACGGCCGGGTTACCGTTCCTCACCCGAAGA (double strand) [hicAB promoter fragment]”: binds.

Construct, isoform or probe ends are uncertain for at least one entry. Tags and fusion partners may be left off the protein sequences shown.
